# This is one part of the list. Most values lie at the level of the controls, where differences are scatter.
# The chains behind the UniProt entries cited, without tags or fusion partners. Where a name states a change or a piece, a line headed by the entry shows the natural chain unless it says otherwise.
# UniProt Q9P1Z2: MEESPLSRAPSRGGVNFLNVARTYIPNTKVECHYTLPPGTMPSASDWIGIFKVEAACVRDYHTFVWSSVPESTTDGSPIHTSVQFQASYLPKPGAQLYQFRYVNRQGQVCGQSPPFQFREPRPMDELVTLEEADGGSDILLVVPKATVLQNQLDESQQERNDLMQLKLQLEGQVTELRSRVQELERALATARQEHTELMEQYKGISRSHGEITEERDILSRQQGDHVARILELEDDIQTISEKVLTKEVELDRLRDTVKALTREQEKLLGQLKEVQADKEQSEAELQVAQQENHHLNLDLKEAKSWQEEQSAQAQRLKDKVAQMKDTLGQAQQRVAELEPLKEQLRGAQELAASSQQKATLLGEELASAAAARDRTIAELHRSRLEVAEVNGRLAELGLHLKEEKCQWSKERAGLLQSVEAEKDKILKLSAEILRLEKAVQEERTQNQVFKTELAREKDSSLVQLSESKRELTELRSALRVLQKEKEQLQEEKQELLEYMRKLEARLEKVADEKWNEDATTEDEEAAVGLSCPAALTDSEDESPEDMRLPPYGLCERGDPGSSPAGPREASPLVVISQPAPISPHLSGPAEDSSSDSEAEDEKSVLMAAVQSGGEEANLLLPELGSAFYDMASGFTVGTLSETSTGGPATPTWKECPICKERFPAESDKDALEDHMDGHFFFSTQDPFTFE
# UniProt Q9P287, whole entry: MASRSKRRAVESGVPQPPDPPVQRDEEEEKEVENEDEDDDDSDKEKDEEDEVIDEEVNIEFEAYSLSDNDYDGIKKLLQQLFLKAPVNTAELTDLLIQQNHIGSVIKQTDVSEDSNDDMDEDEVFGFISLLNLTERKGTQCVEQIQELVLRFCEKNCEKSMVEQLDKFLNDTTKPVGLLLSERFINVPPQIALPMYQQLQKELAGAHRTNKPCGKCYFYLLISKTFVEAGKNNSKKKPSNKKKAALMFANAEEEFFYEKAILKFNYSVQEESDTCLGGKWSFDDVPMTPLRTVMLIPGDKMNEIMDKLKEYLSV
# UniProt Q9UBC2: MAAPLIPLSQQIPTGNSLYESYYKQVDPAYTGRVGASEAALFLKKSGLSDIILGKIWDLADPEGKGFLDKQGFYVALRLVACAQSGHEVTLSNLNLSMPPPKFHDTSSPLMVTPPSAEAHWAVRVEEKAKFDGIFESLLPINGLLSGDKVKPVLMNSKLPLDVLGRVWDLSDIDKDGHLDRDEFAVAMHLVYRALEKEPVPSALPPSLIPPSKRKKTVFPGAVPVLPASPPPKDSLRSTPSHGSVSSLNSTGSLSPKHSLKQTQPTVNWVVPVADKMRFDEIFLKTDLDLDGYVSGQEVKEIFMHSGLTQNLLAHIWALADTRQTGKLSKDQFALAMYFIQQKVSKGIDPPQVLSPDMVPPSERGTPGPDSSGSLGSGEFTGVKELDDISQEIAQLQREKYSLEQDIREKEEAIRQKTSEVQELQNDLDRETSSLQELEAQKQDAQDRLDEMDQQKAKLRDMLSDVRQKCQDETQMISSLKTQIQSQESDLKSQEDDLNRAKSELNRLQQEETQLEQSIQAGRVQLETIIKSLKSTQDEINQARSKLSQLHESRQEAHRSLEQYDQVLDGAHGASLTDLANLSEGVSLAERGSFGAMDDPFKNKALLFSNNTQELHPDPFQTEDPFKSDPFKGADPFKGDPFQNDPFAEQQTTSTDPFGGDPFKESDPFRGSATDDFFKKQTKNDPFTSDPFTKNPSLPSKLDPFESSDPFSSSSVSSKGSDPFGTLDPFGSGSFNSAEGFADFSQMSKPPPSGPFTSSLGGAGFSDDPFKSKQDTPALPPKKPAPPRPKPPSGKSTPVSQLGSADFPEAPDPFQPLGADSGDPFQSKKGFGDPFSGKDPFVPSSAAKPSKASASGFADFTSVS
# UniProt Q9NZM3: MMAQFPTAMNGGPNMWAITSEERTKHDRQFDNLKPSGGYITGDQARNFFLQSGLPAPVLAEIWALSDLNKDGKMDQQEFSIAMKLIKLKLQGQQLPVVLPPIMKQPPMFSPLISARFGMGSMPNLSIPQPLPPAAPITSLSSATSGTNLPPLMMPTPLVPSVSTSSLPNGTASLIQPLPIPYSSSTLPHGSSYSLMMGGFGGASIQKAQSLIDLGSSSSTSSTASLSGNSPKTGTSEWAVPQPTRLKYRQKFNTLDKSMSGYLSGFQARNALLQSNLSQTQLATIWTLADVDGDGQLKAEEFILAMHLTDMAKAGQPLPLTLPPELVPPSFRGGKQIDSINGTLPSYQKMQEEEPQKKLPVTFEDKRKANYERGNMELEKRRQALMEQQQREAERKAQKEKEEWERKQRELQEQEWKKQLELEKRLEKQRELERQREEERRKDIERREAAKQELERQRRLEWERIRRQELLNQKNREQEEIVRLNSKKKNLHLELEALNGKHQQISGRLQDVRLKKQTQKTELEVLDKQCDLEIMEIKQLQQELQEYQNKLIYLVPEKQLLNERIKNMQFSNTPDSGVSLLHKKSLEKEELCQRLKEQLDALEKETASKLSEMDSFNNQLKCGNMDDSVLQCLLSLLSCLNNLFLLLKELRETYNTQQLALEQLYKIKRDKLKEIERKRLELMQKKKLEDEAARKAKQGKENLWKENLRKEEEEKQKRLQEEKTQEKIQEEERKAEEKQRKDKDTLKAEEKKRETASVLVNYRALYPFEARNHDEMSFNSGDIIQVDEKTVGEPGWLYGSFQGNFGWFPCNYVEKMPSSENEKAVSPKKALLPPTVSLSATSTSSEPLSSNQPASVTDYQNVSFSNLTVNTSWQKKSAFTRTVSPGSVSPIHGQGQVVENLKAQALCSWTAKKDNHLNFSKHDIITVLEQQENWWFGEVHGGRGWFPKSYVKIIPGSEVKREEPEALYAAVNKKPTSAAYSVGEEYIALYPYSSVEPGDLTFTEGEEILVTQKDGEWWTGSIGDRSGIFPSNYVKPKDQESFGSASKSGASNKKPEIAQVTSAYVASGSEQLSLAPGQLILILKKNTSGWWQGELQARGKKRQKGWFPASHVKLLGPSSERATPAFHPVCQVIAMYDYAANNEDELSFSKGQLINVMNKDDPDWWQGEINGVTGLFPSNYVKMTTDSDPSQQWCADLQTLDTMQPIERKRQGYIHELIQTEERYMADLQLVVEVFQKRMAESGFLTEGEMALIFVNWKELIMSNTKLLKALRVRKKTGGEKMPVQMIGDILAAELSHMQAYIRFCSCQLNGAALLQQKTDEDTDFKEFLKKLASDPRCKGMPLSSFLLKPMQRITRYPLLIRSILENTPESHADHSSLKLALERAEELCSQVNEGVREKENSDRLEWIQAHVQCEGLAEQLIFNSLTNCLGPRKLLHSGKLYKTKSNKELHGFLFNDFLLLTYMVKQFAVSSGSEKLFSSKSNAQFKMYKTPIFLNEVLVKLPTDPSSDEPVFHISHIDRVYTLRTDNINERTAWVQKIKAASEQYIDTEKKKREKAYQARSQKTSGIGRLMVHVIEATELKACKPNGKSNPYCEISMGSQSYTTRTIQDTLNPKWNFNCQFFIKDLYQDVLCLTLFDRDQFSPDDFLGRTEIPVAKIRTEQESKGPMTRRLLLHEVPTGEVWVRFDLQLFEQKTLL
# UniProt Q9UHR5: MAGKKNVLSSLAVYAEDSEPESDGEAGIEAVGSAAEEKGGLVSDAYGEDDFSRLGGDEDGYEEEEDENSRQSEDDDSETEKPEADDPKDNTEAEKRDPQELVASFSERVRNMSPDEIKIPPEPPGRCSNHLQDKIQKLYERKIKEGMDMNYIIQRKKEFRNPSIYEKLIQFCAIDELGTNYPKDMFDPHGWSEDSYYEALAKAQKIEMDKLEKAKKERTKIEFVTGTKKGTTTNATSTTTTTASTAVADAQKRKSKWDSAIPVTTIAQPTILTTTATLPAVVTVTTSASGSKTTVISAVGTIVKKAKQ
# UniProt Q9P2N5: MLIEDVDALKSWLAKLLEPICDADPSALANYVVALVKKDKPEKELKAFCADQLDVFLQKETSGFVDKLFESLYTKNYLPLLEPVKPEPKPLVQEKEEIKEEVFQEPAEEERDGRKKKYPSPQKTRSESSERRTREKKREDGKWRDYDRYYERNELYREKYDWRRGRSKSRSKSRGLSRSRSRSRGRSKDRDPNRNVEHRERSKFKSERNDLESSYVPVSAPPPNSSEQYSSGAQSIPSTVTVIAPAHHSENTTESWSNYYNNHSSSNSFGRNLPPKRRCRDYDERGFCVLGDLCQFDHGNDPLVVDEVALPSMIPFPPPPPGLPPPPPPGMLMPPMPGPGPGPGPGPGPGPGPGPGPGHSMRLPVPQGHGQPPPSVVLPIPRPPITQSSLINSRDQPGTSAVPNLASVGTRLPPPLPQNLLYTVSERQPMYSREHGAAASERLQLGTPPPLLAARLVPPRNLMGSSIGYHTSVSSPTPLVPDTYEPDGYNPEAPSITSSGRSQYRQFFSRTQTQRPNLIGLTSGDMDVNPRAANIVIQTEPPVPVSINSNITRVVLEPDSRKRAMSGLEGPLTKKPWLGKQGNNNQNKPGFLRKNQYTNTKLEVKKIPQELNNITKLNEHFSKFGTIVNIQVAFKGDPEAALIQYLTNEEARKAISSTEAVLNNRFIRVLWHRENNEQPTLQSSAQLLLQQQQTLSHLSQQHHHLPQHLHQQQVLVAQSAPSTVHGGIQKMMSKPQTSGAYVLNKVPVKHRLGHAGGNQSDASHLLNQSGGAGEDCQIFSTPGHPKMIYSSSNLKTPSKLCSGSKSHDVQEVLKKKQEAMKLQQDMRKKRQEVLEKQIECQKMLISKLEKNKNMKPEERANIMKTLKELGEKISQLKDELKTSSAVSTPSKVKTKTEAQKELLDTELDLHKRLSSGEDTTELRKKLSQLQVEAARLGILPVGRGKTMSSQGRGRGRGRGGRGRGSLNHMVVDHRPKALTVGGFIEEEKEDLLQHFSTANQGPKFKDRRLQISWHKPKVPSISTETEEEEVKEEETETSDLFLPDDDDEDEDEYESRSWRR
# UniProt Q9P278: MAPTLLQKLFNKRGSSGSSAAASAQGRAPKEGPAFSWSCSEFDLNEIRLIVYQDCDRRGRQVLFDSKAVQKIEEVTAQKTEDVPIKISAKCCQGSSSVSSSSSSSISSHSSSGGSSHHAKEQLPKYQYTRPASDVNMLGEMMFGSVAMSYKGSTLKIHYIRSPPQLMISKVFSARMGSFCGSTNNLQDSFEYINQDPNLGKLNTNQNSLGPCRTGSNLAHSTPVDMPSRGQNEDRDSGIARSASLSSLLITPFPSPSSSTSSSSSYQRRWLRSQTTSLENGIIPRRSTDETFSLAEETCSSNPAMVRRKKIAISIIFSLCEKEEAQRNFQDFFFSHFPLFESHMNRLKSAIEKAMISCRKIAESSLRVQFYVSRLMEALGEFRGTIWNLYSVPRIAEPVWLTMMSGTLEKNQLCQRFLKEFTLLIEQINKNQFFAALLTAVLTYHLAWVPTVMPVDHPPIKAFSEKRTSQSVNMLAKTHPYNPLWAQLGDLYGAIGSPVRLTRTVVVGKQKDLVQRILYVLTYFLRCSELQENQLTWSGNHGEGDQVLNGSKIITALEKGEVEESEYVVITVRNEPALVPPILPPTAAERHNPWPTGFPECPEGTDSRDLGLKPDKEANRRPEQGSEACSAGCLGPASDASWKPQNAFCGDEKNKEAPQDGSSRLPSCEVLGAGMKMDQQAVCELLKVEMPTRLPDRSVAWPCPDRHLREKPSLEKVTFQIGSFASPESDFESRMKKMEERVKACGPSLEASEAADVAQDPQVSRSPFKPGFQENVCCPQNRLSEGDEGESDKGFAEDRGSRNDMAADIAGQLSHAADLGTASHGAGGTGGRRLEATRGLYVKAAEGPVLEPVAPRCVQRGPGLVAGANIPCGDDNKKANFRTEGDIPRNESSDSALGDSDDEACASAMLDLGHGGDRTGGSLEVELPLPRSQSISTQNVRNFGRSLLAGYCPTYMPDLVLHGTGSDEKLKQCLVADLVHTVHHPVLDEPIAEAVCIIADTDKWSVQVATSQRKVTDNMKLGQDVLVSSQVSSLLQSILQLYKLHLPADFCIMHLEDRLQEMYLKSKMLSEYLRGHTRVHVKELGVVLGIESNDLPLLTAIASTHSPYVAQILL
# UniProt Q9UBB5, whole entry: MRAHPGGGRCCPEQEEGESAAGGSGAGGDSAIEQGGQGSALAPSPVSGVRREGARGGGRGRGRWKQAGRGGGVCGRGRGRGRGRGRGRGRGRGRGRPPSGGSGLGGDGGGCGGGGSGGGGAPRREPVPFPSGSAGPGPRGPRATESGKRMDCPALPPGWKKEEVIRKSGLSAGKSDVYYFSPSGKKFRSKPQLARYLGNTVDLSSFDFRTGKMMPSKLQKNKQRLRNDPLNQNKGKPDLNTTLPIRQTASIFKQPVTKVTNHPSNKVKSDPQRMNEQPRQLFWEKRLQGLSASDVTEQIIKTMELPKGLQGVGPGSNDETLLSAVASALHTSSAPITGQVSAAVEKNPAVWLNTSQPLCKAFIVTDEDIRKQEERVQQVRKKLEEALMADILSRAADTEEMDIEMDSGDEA
# Compound: CN[C@@H]1C[C@H]2O[C@@](C)([C@@H]1OC)n1c3ccccc3c3c4c(c5c6ccccc6n2c5c31)C(=O)NC4 [staurosporine]
# Assay: log2 fold change of tryptic peptide abundance, ligand vs vehicle (limited proteolysis) (log2 ratio); higher = more trypsin-susceptible (destabilized)
# Details: ligand concentration: 20 uM; sample: K562 cleared lysate; digestion: 4 min, 22 C (HT-PELSA RT4min, Orbitrap Astral)
row,Target,log2 fold change
1,"UniProt Q9P032 (peptide sequence: IMQEYQLEQK, peptide start residue: 138)",0.879
2,"SRRD (peptide sequence: AAAAAAALESWQAAAPR, peptide start residue: 2) (UniProt Q9UH36)",-0.558
3,"STIM2 (peptide sequence: VYNGILEK, peptide start residue: 670) (UniProt Q9P246)",-0.0614
4,"CALCOCO1 (peptide sequence: QQGDHVAR, peptide start residue: 222) (UniProt Q9P1Z2)",1.03
5,"ANAPC2 (peptide sequence: TFQEMIQR, peptide start residue: 168) (UniProt Q9UJX6)",0.274
6,"MKRN1 (peptide sequence: NHFWELIEER, peptide start residue: 417) (UniProt Q9UHC7)",-0.419
7,"BCCIP (peptide sequence: TFVEAGKNNSK, peptide start residue: 225) (UniProt Q9P287)",0.223
8,"NAGK (peptide sequence: EGFLLALTQGR, peptide start residue: 281) (UniProt Q9UJ70)",0.563
9,"UniProt Q9P2B7 (peptide sequence: VLHDTMDLNHLLK, peptide start residue: 339)",0.569
10,"UniProt Q9UGP5 (peptide sequence: QKIHADASSK, peptide start residue: 14)",0.769
11,"EPS15L1 (peptide sequence: LSQLHESR, peptide start residue: 547) (UniProt Q9UBC2)",0.428
12,"UBP1 (peptide sequence: TSAFIQVHCISTEFTPR, peptide start residue: 180) (UniProt Q9NZI7)",0.235
13,"NDUFA13 (peptide sequence: IALLPLLQAETDRR, peptide start residue: 69) (UniProt Q9P0J0)",-0.268
14,"REV1 (peptide sequence: AEIASCSYEAR, peptide start residue: 506) (UniProt Q9UBZ9)",-0.329
15,"LARS (peptide sequence: VLEPYPSKLSGLK, peptide start residue: 271) (UniProt Q9P2J5)",0.457
16,"ACTR3B (peptide sequence: HGIIEDWDLMER, peptide start residue: 80) (UniProt Q9P1U1)",0.438
17,"ZMYM5 (peptide sequence: QLYGSSNTLLK, peptide start residue: 444) (UniProt Q9UJ78)",0.218
18,"STX18 (peptide sequence: VSQSPSKDSEENPATEERPEK, peptide start residue: 186) (UniProt Q9P2W9)",-0.607

# Reprinted at random: two records from the list, in no set order.
row,Target,log2 fold change
18,"STX18 (peptide sequence: VSQSPSKDSEENPATEERPEK, peptide start residue: 186) (UniProt Q9P2W9)",-0.607
5,"ANAPC2 (peptide sequence: TFQEMIQR, peptide start residue: 168) (UniProt Q9UJX6)",0.274

# Remaining list, next part.

row,Target,log2 fold change
1,"ZNF629 (peptide sequence: SFTQSSHLVQHQR, peptide start residue: 186) (UniProt Q9UEG4)",0.21
2,"UniProt Q9UC07 (peptide sequence: EVMLETFR, peptide start residue: 31)",-0.00354
3,"ITSN2 (peptide sequence: NMQFSNTPDSGVSLLHK, peptide start residue: 567) (UniProt Q9NZM3)",0.512
4,"GRHPR (peptide sequence: ILDAAGANLK, peptide start residue: 67) (UniProt Q9UBQ7)",-0.406
5,"UniProt Q9UK80 (peptide sequence: LHLEINR, peptide start residue: 313)",0.0657
6,"SAP30BP (peptide sequence: IPPEPPGR, peptide start residue: 119) (UniProt Q9UHR5)",-0.314
7,"RBM27 (peptide sequence: SKDRDPNR, peptide start residue: 187) (UniProt Q9P2N5)",0.946
8,"DBR1 (peptide sequence: ATDDLINVTGR, peptide start residue: 291) (UniProt Q9UK59)",-1.04
9,"HACL1 (peptide sequence: FSARPSSIEAIPFVIEK, peptide start residue: 137) (UniProt Q9UJ83)",-0.145
10,"FEZ2 (peptide sequence: SSTGSYEER, peptide start residue: 204) (UniProt Q9UHY8)",-0.463
11,"RPUSD1 (peptide sequence: VTISHAIGR, peptide start residue: 112) (UniProt Q9UJJ7)",0.391
12,"RABGEF1 (peptide sequence: QTSIETDRVSK, peptide start residue: 130) (UniProt Q9UJ41)",0.777
13,"UniProt Q9P278 (peptide sequence: LHLPADFCIMHLEDR, peptide start residue: 1044)",-0.387
14,"SUCLA2 (peptide sequence: GKGTFESGLK, peptide start residue: 107) (UniProt Q9P2R7)",0.252
15,"DCTN4 (peptide sequence: VLYLVQGEK, peptide start residue: 10) (UniProt Q9UJW0)",-0.227
16,"ANAPC5 (peptide sequence: TVEDADMELTSRDEGERK, peptide start residue: 169) (UniProt Q9UJX4)",0.506
17,"GMIP (peptide sequence: KLVFQGDEVLR, peptide start residue: 298) (UniProt Q9P107)",0.452
18,"MBD2 (peptide sequence: QTASIFKQPVTK, peptide start residue: 103) (UniProt Q9UBB5)",0.39

# Source: the supplement of paper PMC12819154, “High-throughput peptide-centric local stability assay extends protein–ligand identification to membrane proteins, tissues and bacteria” (Nature Structural & Molecular Biology, 2025)
